What was measured:
Escherichia coli [1] = test: Antibacterial activity against Escherichia coli assessed as growth inhibition at 1 mg/ml by drug sensitive assay; assay type: functional, organism-based
Pseudomonas aeruginosa [2] = test: Antibacterial activity against Pseudomonas aeruginosa assessed as growth inhibition at 10 mg/ml by drug sensitive assay; assay type: functional, organism-based
Pseudomonas aeruginosa [3] = test: Antibacterial activity against Pseudomonas aeruginosa assessed as growth inhibition at 1 mg/ml by drug sensitive assay; assay type: functional, organism-based
Escherichia coli [4] = test: Antibacterial activity against Escherichia coli assessed as growth inhibition at 10 mg/ml by drug sensitive assay; assay type: functional

GENTAMICIN
inhibition zone (IZ) (Escherichia coli [1]): 9 mm
inhibition zone (IZ) (Pseudomonas aeruginosa [2]): 12 mm
inhibition zone (IZ) (Pseudomonas aeruginosa [3]): 8 mm
inhibition zone (IZ) (Escherichia coli [4]): 12 mm

Source: ChEMBL document CHEMBL3751812, “Novel skeleton compound Allomyrinanoid A and two purine alkaloids from the adult of Allomyrina dichotoma L” (2016)
